Data as given in patent US12350266B2, “FGFR2 inhibitors for the treatment of cholangiocarcinoma” (Janssen Pharmaceutica NV, priority 2017, dated 2025).

Tested on: advanced cholangiocarcinoma with FGFR alterations

## COc1cc(OC)cc(N(CCNC(C)C)c2ccc3ncc(-c4cnn(C)c4)nc3c2)c1 [erdafitinib, N-(3,5-dimethoxy-phenyl)-N′-(1-methylethyl)-N-[3-(1-methyl-1H-pyrazol-4-yl)quinoxalin-6-yl]ethane-1,2-diamine]
8 mg qd
  FGFR alterations of participants with confirmed or unconfirmed partial response: FGFR2-KIAA1598 and DTWD2-FGFR2 fusions, with ESR2-FGFR2 fusion, with FGFR2 C390>YS mutation and with FGFR2-MGEA5 fusion
  FGFR alterations of participants with stable disease: FGFR2-BICC1 fusion, with FGFR2 fusion with SBNO2 partner, with FGFR2 N549K mutation, and with FGFR2-KIAA1598 fusion
Patients with FGFR-aberrant advanced cholangiocarcinoma
  clinical activity (conclusion): encouraging clinical activity
